In publication PMC3377666:
These are yes or no findings as the source states them, for the method shown. Some entries that bind do so weakly or less than the wild type.

Sequences of proteins named here, by UniProt entry; tags and fusion partners are left off. A change or cut given only in a name is not applied to a line headed by its entry.
UniProt P28340: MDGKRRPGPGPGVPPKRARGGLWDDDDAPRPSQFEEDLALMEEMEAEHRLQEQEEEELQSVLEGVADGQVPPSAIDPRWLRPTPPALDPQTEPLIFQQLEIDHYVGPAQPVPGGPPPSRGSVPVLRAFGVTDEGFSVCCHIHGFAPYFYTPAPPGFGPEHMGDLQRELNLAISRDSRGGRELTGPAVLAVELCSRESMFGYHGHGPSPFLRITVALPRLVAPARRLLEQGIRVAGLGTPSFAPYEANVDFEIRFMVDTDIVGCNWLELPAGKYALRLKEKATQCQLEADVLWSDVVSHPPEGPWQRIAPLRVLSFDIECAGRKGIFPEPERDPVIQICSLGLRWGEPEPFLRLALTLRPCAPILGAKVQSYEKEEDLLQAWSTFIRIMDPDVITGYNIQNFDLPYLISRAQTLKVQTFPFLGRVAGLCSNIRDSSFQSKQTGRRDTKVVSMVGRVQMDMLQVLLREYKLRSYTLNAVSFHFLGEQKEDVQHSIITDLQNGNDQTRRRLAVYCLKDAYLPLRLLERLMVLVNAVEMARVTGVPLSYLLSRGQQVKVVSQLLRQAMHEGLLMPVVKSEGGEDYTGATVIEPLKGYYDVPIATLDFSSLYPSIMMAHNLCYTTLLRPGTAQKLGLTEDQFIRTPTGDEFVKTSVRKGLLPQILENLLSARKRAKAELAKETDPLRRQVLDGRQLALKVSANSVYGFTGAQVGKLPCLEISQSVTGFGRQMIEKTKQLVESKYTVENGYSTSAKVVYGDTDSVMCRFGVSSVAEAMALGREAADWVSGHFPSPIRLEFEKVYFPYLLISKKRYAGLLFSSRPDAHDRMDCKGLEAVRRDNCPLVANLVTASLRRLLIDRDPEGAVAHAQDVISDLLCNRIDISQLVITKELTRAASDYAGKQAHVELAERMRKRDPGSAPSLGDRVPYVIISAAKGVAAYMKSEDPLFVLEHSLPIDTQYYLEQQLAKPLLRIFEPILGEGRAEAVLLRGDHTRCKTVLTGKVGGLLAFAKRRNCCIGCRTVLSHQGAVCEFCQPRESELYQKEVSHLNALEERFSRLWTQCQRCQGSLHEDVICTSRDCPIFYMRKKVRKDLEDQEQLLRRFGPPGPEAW

B1: human DNA polymerase δ subunit p68 (protein, UniProt Q15054 1-466)
chain: MADQLYLENIDEFVTDQNKIVTYKWLSYTLGVHVNQAKQMLYDYVERKRKENSGAQLHVTYLVSGSLIQNGHSCHKVAVVREDKLEAVKSKLAVTASIHVYSIQKAMLKDSGPLFNTDYDILKSNLQNCSKFSAIQCAAAVPRAPAESSSSSKKFEQSHLHMSSETQANNELTTNGHGPPASKQVSQQPKGIMGMFASKAAAKTQETNKETKTEAKEVTNASAAGNKAPGKGNMMSNFFGKAAMNKFKVNLDSEQAVKEEKIVEQPTVSVTEPKLATPAGLKKSSKKAEPVKVLQKEKKRGKRVALSDDETKETENMRKKRRRIKLPESDSSEDEVFPDSPGAYEAESPSPPPPPSPPLEPVPKTEPEPPSVKSSSGENKRKRKRVLKSKTYLDGEGCIVTEKVYESESCTDSEEELNMKTSSVHRPPAMTVKKEPREERKGPKKGTAALGKANRQVSITGFFQRK
B2: human DNA polymerase δ subunit p12 (protein, UniProt Q9HCU8 1-107)
chain: MGRKRLITDSYPVVKRREGPAGHSKGELAPELGEEPQPRDEEEAELELLRQFDLAWQYGPCTGITRLQRWCRAKQMGLEPPPEVWQVLKTHPGDPRFQCSLWHLYPL
B3: native DNA polymerase δ subunit p68 of HeLa cells (protein, UniProt Q15054 1-466)
chain: B1 chain
B4: native DNA polymerase δ subunit p12 of HeLa cells (protein, UniProt Q9HCU8 1-107)
chain: B2 chain

Legend:
[1] = target: human DNA polymerase δ catalytic subunit p125 (human) (UniProt P28340); test: immunoaffinity chromatography and Mono Q co-purification; subunits co-expressed in Sf9 from a single MultiBac baculovirus; lysate on 78F5 anti-p125 agarose, wash TGEE with 0.1 M NaCl, elution 0.4 M NaCl and 30% ethylene glycol; Mono Q gradient 0.1 to 1 M NaCl; 12.5% SDS-PAGE, silver staining
[2] = target: native DNA polymerase δ subunit p125 of HeLa cells (human (endogenous in HeLa)) (UniProt P28340); test: immunoaffinity chromatography with Western blot; lysate of HeLa cells (untreated, or UV-C 20 J/m^2 and harvested 4 hours later) on anti-p125 agarose at 4°C, wash TGEE with 0.1 M NaCl, elution 0.4 M NaCl and 30% ethylene glycol; fractions blotted for p12, p125, p50 and p68

Row | Binder | binding [1] | binding [2]
1 | B1 | binds | 
2 | B2 | binds | 
3 | B3 |  | binds
4 | B4 |  | binds
